Measurements published in publication PMC3197689.

Target: T1, Zelda (Zld), recombinant (Drosophila melanogaster) (UniProt Q9VWC6)
T1 sequence (looked up, limits assumed): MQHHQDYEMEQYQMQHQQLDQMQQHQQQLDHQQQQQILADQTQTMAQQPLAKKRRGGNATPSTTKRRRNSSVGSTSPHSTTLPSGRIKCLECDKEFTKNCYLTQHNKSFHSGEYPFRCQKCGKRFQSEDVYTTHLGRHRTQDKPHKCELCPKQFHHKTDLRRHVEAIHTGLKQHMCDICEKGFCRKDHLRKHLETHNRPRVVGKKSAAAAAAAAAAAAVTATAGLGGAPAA
Assay: EMSA
Conditions: EMSA as previously described (ref 3); pH and temperature not given; recombinant protein

| Sequence | binding result |
| --- | --- |
| AAAGGATCAGGTACCCGGGGT (double strand) [nullo-1 (CAGGTAC)] | binds |
| ACAATTGCAGGTAAGTAGAGC (double strand) [eve3 (CAGGTAA)] | binds |
| ATAAACACAGGCAGCTGGTGC (double strand) [zen3 (CAGGCAG)] | binds |
| CACTATTTAGGTAGACACTGT (double strand) [zen1 (TAGGTAG)] | binds |
| CACTATTTGAATAGACACTGT (double strand) [zen1m (TGAATAG)] | no binding |
| CCAGCCGCAGGTATTTAGTTC (double strand) [tat (CAGGTAT)] | binds |
| GTCGGAGCAGGCAACGGGCAT (double strand) [nullo-2 (CAGGCAA)] | binds |
| TCACTACTATCGATGACGATG (double strand) [tatcgat (TATCGAT)] | no binding |
| TCGTCGGTAGGTAAAAGTTGT (double strand) [sema1 (TAGGTAA)] | binds |
| TGGGTTTCAGGTAGGTGAATA (double strand) [zen2 (CAGGTAG)] | binds |

The exact form of at least one protein or probe is not confirmed. No signal at the amounts used counts as a negative. Where a protein sequence is shown, tags need not be part of it.
